Results from PMC8707212, “Immunosuppressive Sesquiterpenoids from the Edible Mushroom Craterellus odoratus” (Journal of Fungi, 2021).

Test system: B lymphocyte cells
Test: LPS-induced B-cell proliferation ([3H]-thymidine uptake)
Type: cell-based, BALB/c mice
Details: SI = CC50/IC50
Protocol: Female BALB/c mice were sacrificed by cervical dislocation, and their spleens were aseptically removed. After cell debris, mononuclear cell suspensions were prepared, and clumps were removed. Erythrocytes were depleted with ammonium chloride buffer solution. Lymphocytes were washed and resuspended in RPMI 1640 medium supplemented with 10% FBS, penicillin (100 U/mL), and streptomycin ([…]).
As mentioned above, fresh spleen cells were obtained from female BALB/c mice (18–20 g). Similarly, the 5 × 10^5 spleen cells were cultured at the same conditions. The cultures, with or without various concentrations of compounds, were stimulated with 5 µg/mL of concanavalin A (ConA) to induce the T cells’ proliferative response or 10 µg/mL of lipopolysaccharide (LPS) to induce B cells’ proliferative response. Proliferation was assessed in terms of uptake of [^3H]-thymidine during 8 h of pulsing with 25 µL/well of [^3H]-thymidine, then cells will be harvested onto glass fiber filters. A Beta scintillation counter was used to count the incorporated radioactivity. Cells treated without any stimuli were used as a negative control. The immunosuppressive activity was expressed as the concentration of the compound that inhibited T or B cell proliferation to 50% (IC50) of the control value. Both the cytotoxicity and proliferation assessment were repeated twice.

| SMILES | LPS-Induced B-Cell Proliferation SI |
| --- | --- |
| CC(=CCCC1(C)C2CCC(CO)(C2)C1O)C(=O)O (centres unmarked) [Compound 3, Craterodoratin C] | >3.17 |
| CC(=CC(O)CC12COC3(CO)CCC1CC32)C(=O)O (centres unmarked) [Compound 10, Craterodoratin J] | >2.06 |
| CC(=CC(=O)CC12C(=O)OC3(C)CCC1CC32)C(=O)O (centres unmarked) [Compound 12, Craterodoratin L] | >2.92 |
| CC(=CCCC1(C)C2CCC(CO)C1C2)C(=O)O (centres unmarked) [Compound 13, Craterodoratin M] | >2.59 |
| CC(=CCCC1(C)C2CCC(CO)C1(O)C2)C(=O)O (centres unmarked) [Compound 14, Craterodoratin N] | >3.02 |
| C=C1CCC2(O)CC1C2(C)CCC=C(C)C(=O)O (centres unmarked) [Compound 15, Craterodoratin O] | >2.34 |
| C=C1C2CN(CC(=O)O)CC3C2C(C(C)C)CCC13C (centres unmarked) [Compound 19, Craterodoratin S] | >1.76 |
| CC(=CC1CC23C4CCC(C)(OC2O1)C3C4)C(=O)O (centres unmarked) [Compound 23, donacinoic acid A] | >3.02 |
